According to PMC7250872, “Repression of the lysogenic PR promoter in bacteriophage TP901-1 through binding of a CI-MOR complex to a composite OM-OR operator” (Scientific Reports, 2020):
No constants are given. Whether binding was seen depends on the method and setting. Sequences can lack the tags named with a protein.

Target: CI-NTD89-His6 (CI N-terminal domain 1-80 plus linker 81-89) (bacteriophage TP901-1) (UniProt O48503)
Experiment: SEC; Superdex 75 Prep Grad, 20 mM Tris, 100 mM NaCl, pH 7.4; each protein run alone (CI-NTD89-His6 38 uM, MOR 10 uM); both purified

binding: no binding (tested: 38 μM)
B1: CI-NTD89-His6 (CI N-terminal domain 1-80 plus linker 81-89) (domain or fragment, UniProt O48503 1-89)
chain: MKTDTSNRLKQIMAERNLKQVDILNLSIPFQKKFGIKLSKSTLSQYVNSVQSPDQNRIYLLAKTLGVSEAWLMGFDVPMVESSKIENDS
